Like-named read-outs stand apart in the source and are kept apart here. No constants are given. Whether binding was seen depends on the method and setting. In cells and extracts the contact can be indirect. Some entries that bind do so weakly or less than the wild type.

Protein sequences, listed by entry. Tags and fused reporters are not part of them. Lines headed by an entry give the natural chain unless they say otherwise; changes in a name come on top. Residues count along the entry.
UniProt Q16254: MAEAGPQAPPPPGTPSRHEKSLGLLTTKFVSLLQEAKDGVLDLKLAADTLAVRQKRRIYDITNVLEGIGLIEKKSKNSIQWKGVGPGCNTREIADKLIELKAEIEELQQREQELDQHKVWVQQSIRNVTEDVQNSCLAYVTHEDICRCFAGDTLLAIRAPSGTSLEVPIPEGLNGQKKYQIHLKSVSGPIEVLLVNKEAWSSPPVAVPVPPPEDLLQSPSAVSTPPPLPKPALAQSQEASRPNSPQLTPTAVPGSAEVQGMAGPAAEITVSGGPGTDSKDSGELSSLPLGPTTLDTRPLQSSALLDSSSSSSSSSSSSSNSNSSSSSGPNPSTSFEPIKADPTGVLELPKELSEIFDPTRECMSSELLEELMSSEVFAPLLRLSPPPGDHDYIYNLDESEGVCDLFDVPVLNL
GST-E2f4 N-terminal fragment (amino acids 1-105) (human (ORF amplified from HCT116 mRNA)): residues 1-105 of Q16254
UniProt Q8R0K9: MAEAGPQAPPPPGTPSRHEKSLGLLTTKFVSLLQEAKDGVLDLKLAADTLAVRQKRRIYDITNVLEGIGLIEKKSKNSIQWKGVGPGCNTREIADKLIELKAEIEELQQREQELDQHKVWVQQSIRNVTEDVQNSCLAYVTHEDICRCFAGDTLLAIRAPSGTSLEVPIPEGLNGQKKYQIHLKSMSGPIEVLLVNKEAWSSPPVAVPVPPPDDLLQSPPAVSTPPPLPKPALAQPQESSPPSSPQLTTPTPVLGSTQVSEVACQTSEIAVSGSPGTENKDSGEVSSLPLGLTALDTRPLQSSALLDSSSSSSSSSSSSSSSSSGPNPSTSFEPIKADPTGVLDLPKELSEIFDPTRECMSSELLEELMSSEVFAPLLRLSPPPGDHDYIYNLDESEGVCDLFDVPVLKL
UniProt P46063: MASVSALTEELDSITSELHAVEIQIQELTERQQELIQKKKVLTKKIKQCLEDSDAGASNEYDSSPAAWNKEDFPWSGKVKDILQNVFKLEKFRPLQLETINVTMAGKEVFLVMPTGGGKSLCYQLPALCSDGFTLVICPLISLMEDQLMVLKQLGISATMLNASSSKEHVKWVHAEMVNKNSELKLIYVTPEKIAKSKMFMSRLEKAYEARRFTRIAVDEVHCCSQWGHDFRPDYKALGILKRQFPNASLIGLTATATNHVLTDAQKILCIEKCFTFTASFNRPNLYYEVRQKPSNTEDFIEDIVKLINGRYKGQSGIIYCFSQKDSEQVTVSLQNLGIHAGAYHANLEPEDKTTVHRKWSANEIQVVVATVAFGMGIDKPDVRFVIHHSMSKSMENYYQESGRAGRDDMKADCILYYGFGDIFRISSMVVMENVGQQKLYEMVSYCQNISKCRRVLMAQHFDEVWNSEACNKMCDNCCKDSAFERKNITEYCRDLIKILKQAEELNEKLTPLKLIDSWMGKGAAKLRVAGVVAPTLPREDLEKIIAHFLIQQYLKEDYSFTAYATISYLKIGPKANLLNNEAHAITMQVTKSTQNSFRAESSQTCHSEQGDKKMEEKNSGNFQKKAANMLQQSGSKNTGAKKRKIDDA
UniProt P17918: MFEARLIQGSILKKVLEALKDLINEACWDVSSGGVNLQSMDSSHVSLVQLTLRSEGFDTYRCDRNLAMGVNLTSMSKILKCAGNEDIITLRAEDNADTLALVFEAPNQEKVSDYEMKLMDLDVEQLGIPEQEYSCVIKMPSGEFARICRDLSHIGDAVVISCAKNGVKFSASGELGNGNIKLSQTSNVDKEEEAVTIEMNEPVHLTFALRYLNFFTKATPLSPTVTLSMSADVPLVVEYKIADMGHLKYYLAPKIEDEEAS

The target in assay [1] is GST-E2f4 N-terminal fragment (amino acids 1-105) (human (ORF amplified from HCT116 mRNA)) (UniProt Q16254). Briefly: pull-down; GST-E2f4 fusion proteins on glutathione agarose beads, washed with TNT-300 buffer, incubated 4 h with U2OS or shTrim33 U2OS whole cell lysates; immunoblot; only the target purified. (In western blotting, separated proteins are transferred to a membrane and probed.)

In assay [2] the target is T1, Trim33 (endogenous, U2OS) (human (endogenous in U2OS)) (UniProt Q9UPN9).
T1 sequence: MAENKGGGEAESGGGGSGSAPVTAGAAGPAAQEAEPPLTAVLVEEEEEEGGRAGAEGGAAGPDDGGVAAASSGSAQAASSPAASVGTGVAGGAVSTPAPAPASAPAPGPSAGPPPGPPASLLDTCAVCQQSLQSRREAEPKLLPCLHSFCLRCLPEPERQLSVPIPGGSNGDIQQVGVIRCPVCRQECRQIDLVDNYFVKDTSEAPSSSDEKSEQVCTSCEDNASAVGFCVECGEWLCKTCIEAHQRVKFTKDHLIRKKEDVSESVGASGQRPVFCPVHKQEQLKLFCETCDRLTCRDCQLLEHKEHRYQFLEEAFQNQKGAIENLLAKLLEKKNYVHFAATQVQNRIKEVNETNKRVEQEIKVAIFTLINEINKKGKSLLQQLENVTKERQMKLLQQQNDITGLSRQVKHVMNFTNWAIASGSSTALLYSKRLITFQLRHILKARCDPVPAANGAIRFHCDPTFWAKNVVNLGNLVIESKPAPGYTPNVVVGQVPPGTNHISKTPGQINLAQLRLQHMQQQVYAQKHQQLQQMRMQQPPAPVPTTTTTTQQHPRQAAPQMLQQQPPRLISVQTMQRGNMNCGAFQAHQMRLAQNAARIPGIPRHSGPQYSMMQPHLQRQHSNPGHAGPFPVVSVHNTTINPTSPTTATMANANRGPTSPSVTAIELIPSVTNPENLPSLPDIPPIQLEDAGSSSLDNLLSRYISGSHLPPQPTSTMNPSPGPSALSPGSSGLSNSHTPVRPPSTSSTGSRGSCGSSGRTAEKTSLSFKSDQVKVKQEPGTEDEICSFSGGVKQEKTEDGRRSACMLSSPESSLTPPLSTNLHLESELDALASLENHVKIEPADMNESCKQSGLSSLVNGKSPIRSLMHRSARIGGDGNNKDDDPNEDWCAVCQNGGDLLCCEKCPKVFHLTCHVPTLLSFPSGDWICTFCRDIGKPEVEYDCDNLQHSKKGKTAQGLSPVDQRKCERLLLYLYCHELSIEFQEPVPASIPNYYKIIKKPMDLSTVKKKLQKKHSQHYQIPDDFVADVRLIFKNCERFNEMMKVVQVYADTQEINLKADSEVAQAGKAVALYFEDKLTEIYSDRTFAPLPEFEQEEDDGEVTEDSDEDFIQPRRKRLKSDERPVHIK
Briefly: co-IP; Trim33 immunoprecipitates from lysates of U2OS cells, endogenous proteins.

Assay [3] has as its target T2, Recql DNA helicase (endogenous, mouse) (mouse (endogenous in p19/Nras)) (UniProt Q9Z129).
T2 sequence: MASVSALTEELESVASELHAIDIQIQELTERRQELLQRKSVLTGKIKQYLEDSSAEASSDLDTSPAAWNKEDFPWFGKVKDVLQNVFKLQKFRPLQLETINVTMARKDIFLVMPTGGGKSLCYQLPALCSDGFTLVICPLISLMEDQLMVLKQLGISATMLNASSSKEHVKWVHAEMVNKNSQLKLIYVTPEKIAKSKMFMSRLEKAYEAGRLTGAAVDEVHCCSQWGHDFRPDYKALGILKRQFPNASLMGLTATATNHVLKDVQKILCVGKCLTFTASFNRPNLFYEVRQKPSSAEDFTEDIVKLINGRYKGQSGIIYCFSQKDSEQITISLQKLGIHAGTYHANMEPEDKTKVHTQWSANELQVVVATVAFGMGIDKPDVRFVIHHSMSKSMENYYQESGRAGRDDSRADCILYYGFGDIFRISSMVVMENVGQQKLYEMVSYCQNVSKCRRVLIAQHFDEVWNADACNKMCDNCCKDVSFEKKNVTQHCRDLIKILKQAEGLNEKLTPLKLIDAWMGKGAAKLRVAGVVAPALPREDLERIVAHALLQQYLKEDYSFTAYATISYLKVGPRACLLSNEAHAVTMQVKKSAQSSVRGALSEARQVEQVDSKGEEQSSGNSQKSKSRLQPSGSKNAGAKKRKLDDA
Briefly: co-IP; IP of HA-tagged or endogenous Recql from formaldehyde-crosslinked (0.2%) p19/Nras Trim33-WT and Trim33-KO cells, sonicated in TNT buffer with 300 mM NaCl and 0.1% SDS; with control or E2f4 siRNA, E2f4 variants, untreated or HU 10 or 120 min.

The target of assay [4] is GST-E2f4 N-terminal fragment (amino acids 1-105) (human (ORF amplified from HCT116 mRNA)) (UniProt Q16254). In words: pull-down; GST-E2f4 fusion proteins on glutathione agarose beads, washed with TNT-300 buffer, incubated 4 h with U2OS or shTrim33 U2OS whole cell lysates; immunoblot; only the target purified. The source holds these as a separate data set.
The target of assay [5] is transcription factor E2f4 (endogenous, mouse) (mouse (endogenous in p19/Nras)) (UniProt Q8R0K9). Briefly: co-IP; IP of endogenous E2f4 with E2f4 antibodies from TNT-150 lysates (25 mM Tris-HCl pH 8.0, 1% Triton X-100, 150 mM NaCl) of p19/Nras Trim33-WT or Trim33-KO cells; cells treated with MG132 or DMSO, or HU (2 h); lysates with or without benzonase; protein G agarose, 4 °C.

For assay [6] the target is unchanged. Briefly: proximity ligation; Duolink PLA on formaldehyde-fixed p19/Nras Trim33-WT and Trim33-KO cells with antibody pairs as indicated (Trim33 and E2f4; Recql and HA-tag; Recql and RNAPII or Mcm2); untreated or HU-treated.
Assay [7] deals with HA-tagged E2f4 (stably expressed in p19/Nras cells) (human (ORF amplified from HCT116 mRNA)) (UniProt Q16254). The description is as above.
The target is the same in assay [8]. Briefly: co-IP; IP experiment with E2f4 variants and Recql (Supplementary Fig. 3e); cells and bait not told.

“Recql (endogenous, U2OS) (from UniProt P46063 1-649)”: the binding entry in assay [1] is “binds weakly”.

For “E2f4 (endogenous, U2OS) (from UniProt Q16254 1-413)”, the binding result in assay [2] was “binds”.

Take “PCNA (endogenous, mouse) (from UniProt P17918 1-261)”: the binding entry in assay [3] is “binds”.

B1: Trim33 (endogenous, U2OS) (protein, UniProt Q9UPN9 1-1127)
chain: MAENKGGGEAESGGGGSGSAPVTAGAAGPAAQEAEPPLTAVLVEEEEEEGGRAGAEGGAAGPDDGGVAAASSGSAQAASSPAASVGTGVAGGAVSTPAPAPASAPAPGPSAGPPPGPPASLLDTCAVCQQSLQSRREAEPKLLPCLHSFCLRCLPEPERQLSVPIPGGSNGDIQQVGVIRCPVCRQECRQIDLVDNYFVKDTSEAPSSSDEKSEQVCTSCEDNASAVGFCVECGEWLCKTCIEAHQRVKFTKDHLIRKKEDVSESVGASGQRPVFCPVHKQEQLKLFCETCDRLTCRDCQLLEHKEHRYQFLEEAFQNQKGAIENLLAKLLEKKNYVHFAATQVQNRIKEVNETNKRVEQEIKVAIFTLINEINKKGKSLLQQLENVTKERQMKLLQQQNDITGLSRQVKHVMNFTNWAIASGSSTALLYSKRLITFQLRHILKARCDPVPAANGAIRFHCDPTFWAKNVVNLGNLVIESKPAPGYTPNVVVGQVPPGTNHISKTPGQINLAQLRLQHMQQQVYAQKHQQLQQMRMQQPPAPVPTTTTTTQQHPRQAAPQMLQQQPPRLISVQTMQRGNMNCGAFQAHQMRLAQNAARIPGIPRHSGPQYSMMQPHLQRQHSNPGHAGPFPVVSVHNTTINPTSPTTATMANANRGPTSPSVTAIELIPSVTNPENLPSLPDIPPIQLEDAGSSSLDNLLSRYISGSHLPPQPTSTMNPSPGPSALSPGSSGLSNSHTPVRPPSTSSTGSRGSCGSSGRTAEKTSLSFKSDQVKVKQEPGTEDEICSFSGGVKQEKTEDGRRSACMLSSPESSLTPPLSTNLHLESELDALASLENHVKIEPADMNESCKQSGLSSLVNGKSPIRSLMHRSARIGGDGNNKDDDPNEDWCAVCQNGGDLLCCEKCPKVFHLTCHVPTLLSFPSGDWICTFCRDIGKPEVEYDCDNLQHSKKGKTAQGLSPVDQRKCERLLLYLYCHELSIEFQEPVPASIPNYYKIIKKPMDLSTVKKKLQKKHSQHYQIPDDFVADVRLIFKNCERFNEMMKVVQVYADTQEINLKADSEVAQAGKAVALYFEDKLTEIYSDRTFAPLPEFEQEEDDGEVTEDSDEDFIQPRRKRLKSDERPVHIK
Consider B1, for which the binding result in assay [4] is on record as “binds”.

B2: Trim33 ubiquitin ligase (endogenous, mouse) (protein, UniProt Q99PP7 1-1142)
chain: MAENKGGGEAESGGGGSGSAPVTAGAAGPTAQEAEPPLAAVLVEEEEEEGGRAGAEGGAAGPDDGGVAAASSSSAPAASVPAASVGSAVPGGAASTPAPAAAPAPAPAPAPAPAPAPAPAPAPGSSSGPPLGPPASLLDTCAVCQQSLQSRREAEPKLLPCLHSFCLRCLPEPERQLSVPIPGGSNGDVQQVGVIRCPVCRQECRQIDLVDNYFVKDTSEAPSSSDEKSEQVCTSCEDNASAVGFCVECGEWLCKTCIEAHQRVKFTKDHLIRKKEDVSESVGTSGQRPVFCPVHKQEQLKLFCETCDRLTCRDCQLLEHKEHRYQFLEEAFQNQKGAIENLLAKLLEKKNYVHFAATQVQNRIKEVNETNKRVEQEIKVAIFTLINEINKKGKSLLQQLENVTKERQMKLLQQQNDITGLSRQVKHVMNFTNWAIASGSSTALLYSKRLITFQLRHILKARCDPVPAANGAIRFHCDPTFWAKNVVNLGNLVIESKPAPGYTPNVVVGQVPPGTNHISKTPGQINLAQLRLQHMQQQVYAQKHQQLQQMRLQQPPAPIPTTTATTQQHPRQAAPQMLQQQPPRLISVQTMQRGNMNCGAFQAHQMRLAQNAARIPGIPRHSAPQYSMMQPHLQRQHSNPGHAGPFPVVSAHNPINPTSPTTATMANANRGPTSPSVTAIELIPSVTNPENLPSLPDIPPIQLEDAGSSSLDNLLSRYISGSHLPPQPTSTMNPSPGPSALSPGSSGLSNSHTPVRPPSTSSTGSRGSCGSSGRTAEKSAHSFKSDQVKVKQEPGTEEEICSFSGAVKQEKTEDGRRSACMLSSPESSLTPPLSTNLHLESELDTLTGLENHVKTEPTDISESCKQSGLSNLVNGKSPIRNLMHRSARIGGDGNSKDDDPNEDWCAVCQNGGDLLCCEKCPKVFHLTCHVPTLLSFPSGDWICTFCRDIGKPEVEYDCDNMQHSKKGKTAQGLSPVDQRKCERLLLYLYCHELSIEFQEPVPVSIPNYYKIIKKPMDLSTVKKKLQKKHSQHYQIPDDFVADVRLIFKNCERFNEMMKVVQVYADTQEINLKGDSEVAKAGKAVALYFEDKLSEIYSDRTFTPLPEFEQDEDDGEVTEDSDEDFIQPRRKRLKSDERPVHIK
In the case of B2, the binding result in assay [5] and in assay [6] was “binds” throughout.

B3: Recql DNA helicase (endogenous, mouse) (protein, UniProt Q9Z129 1-648)
chain: MASVSALTEELESVASELHAIDIQIQELTERRQELLQRKSVLTGKIKQYLEDSSAEASSDLDTSPAAWNKEDFPWFGKVKDVLQNVFKLQKFRPLQLETINVTMARKDIFLVMPTGGGKSLCYQLPALCSDGFTLVICPLISLMEDQLMVLKQLGISATMLNASSSKEHVKWVHAEMVNKNSQLKLIYVTPEKIAKSKMFMSRLEKAYEAGRLTGAAVDEVHCCSQWGHDFRPDYKALGILKRQFPNASLMGLTATATNHVLKDVQKILCVGKCLTFTASFNRPNLFYEVRQKPSSAEDFTEDIVKLINGRYKGQSGIIYCFSQKDSEQITISLQKLGIHAGTYHANMEPEDKTKVHTQWSANELQVVVATVAFGMGIDKPDVRFVIHHSMSKSMENYYQESGRAGRDDSRADCILYYGFGDIFRISSMVVMENVGQQKLYEMVSYCQNVSKCRRVLIAQHFDEVWNADACNKMCDNCCKDVSFEKKNVTQHCRDLIKILKQAEGLNEKLTPLKLIDAWMGKGAAKLRVAGVVAPALPREDLERIVAHALLQQYLKEDYSFTAYATISYLKVGPRACLLSNEAHAVTMQVKKSAQSSVRGALSEARQVEQVDSKGEEQSSGNSQKSKSRLQPSGSKNAGAKKRKLDDA
With B3, the binding result in assay [5], in assay [7] and in assay [8] was “binds” each time.

Values taken from paper PMC10447549.
